Consider 6 molecules from PMC4358907.

Results are given in words; binding and its absence hold for the method and conditions named. In cells and extracts the contact can be indirect. A yes stands for co-enrichment or nearness to the bait. Other partners may have been found. For part of these data: No binding means not detected with the bait. Where a sequence is shown, tags or fusion partners need not be part of it.

B1: BSH (protein, UniProt P93045 1-240)
chain: MKGLVSTGWKGPVKFRMPTAENLVPIRLDIQFEGQRYKDAFTWNPSDPDNEVVIFAKRTVKDLKLPYAFVTQIAQSIQSQLSDFRAYEGQDMYTGEKIIPIKLDLRVNHTLIKDQFLWDLNNFESDPEEFARTLCKDLGVEDPEVGPAVAFAIREQLYEIAIQSVASARESRLSKKGRRGSDHGSASKASGLSMDLMKLFSFKSSVVRKRKDLDVYEPVVDLLTSEEVDALEAREERHAR
B2: HAM1 (protein, UniProt Q9FLF7 1-445)
chain: MGSSADTETAMIIATPASNHNNPATNGGDANQNHTSGAILALTNSESDASKKRRMGVLPLEVGTRVMCQWRDGKYHPVKVIERRKNYNGGHNDYEYYVHYTEFNRRLDEWIKLEQLDLDSVECALDEKVEDKVTSLKMTRHQKRKIDETHVEGHEELDAASLREHEEFTKVKNIATIELGKYEIETWYFSPFPPEYNDCVKLFFCEFCLSFMKRKEQLQRHMRKCDLKHPPGDEIYRSSTLSMFEVDGKKNKVYAQNLCYLAKLFLDHKTLYYDVDLFLFYILCECDDRGCHMVGYFSKEKHSEEAYNLACILTLPPYQRKGYGKFLIAFSYELSKKEGKVGTPERPLSDLGLVSYRGYWTRILLDILKKHKGNISIKELSDMTAIKAEDILSTLQSLELIQYRKGQHVICADPKVLDRHLKAAGRGGLDVDVSKMIWTPYKEQS
B3: ING2 (protein, UniProt B3H615 1-262)
chain: MAIARTGVYVDDYLEYASTFPAELQRLLNTVRELDERSQSLINQTRQQTKYCLGLASQSSKKGNGNHYNNGGLDEEETIEKMRKEIESSQENALSLCTEKVLLARQAYDLIDSHVKRLDEDLNNFAEDLKQEGKIPPDEPSVLPPLPIVPKAEKRKSFYGTPQPKKIDYRDRDWDRDRDFELMPPPGSNRKDLMPIEEQPIDPNEPTYCVCHQVSFGDMIACDNENCQGGEWFHYTCVGLTPETRFKGKWYCPTCRLLPQSH
B4: SWI3D (protein, UniProt Q8VY05 1-985)
chain: MEEKRRDSAGTLAFAGSSGDSPASEPMPAPRRRGGGLKRKANALGGSNFFSSAPSKRMLTREKAMLASFSPVHNGPLTRARQAPSIMPSAADGVKSEVLNVAVGADGEKPKEEEERNKAIREWEALEAKIEADFEAIRSRDSNVHVVPNHCGWFSWEKIHPLEERSLPSFFNGKLEGRTSEVYREIRNWIMGKFHSNPNIQIELKDLTELEVGDSEAKQEVMEFLDYWGLINFHPFPPTDTGSTASDHDDLGDKESLLNSLYRFQVDEACPPLVHKPRFTAQATPSGLFPDPMAADELLKQEGPAVEYHCNSCSADCSRKRYHCPKQADFDLCTECFNSGKFSSDMSSSDFILMEPAEAPGVGSGKWTDQETLLLLEALEIFKENWNEIAEHVATKTKAQCMLHFLQMPIEDAFLDQIDYKDPISKDTTDLAVSKDDNSVLKDAPEEAENKKRVDEDETMKEVPEPEDGNEEKVSQESSKPGDASEETNEMEAEQKTPKLETAIEERCKDEADENIALKALTEAFEDVGHSSTPEASFSFADLGNPVMGLAAFLVRLAGSDVATASARASIKSLHSNSGMLLATRHCYILEDPPDNKKDPTKSKSCSADAEGNDDNSHKDDQPEEKSKKAEEVSLNSDDREMPDTDTGKETQDSVSEEKQPGSRTENSTTKLDAVQEKRSSKPVTTDNSEKPVDIICPSQDKCSGKELQEPLKDGNKLSSENKDASQSTVSQSAADASQPEASRDVEMKDTLQSEKDPEDVVKTVGEKVQLAKEEGANDVLSTPDKSVSQQPIGSASAPENGTAGGNPNIEGKKEKDICEGTKDKYNIEKLKRAAISAISAAAVKAKNLAKQEEDQIRQLSGSLIEKQLHKLEAKLSIFNEAESLTMRVREQLERSRQRLYHERAQIIAARLGVPPSMSSKASLPTNRIAANFANVAQRPPMGMAFPRPPMPRPPGFPVPGSFVAATTMTGSSDPSPGSDNVSSV
B5: MINU2 (protein, UniProt F4K128 1-1064)
chain: MVKQLQEQEENDPVEKTKSLISALNYLSRDLLLPSHLYASVSSIYHASVSDLSPSPPLRGNSYTPNRGDLMSEFEDALLQQRLNYESGSRLAELKETRYKNRIHNRLSQLEGLPSNRGEDLQEKCLLELYGLKLQELQCRVRGEVSAEYWLRLNCADPERQLYDWGMMRLPRRMYGVGDSFVMEADDQFRNKRDAERLLRLEEEEKNLIETTQRKFFAEVLNAVREFQLQIQASHRRCKQRNDGVQAWHGKQRQRATRAEKLRIMALKSDDQEEYMKLAKESKNEKLTLFLEETNKIFVSLGAAVQRQKDAKLSENTKLLKGSESDLSDVDAPEDVLPAQDIEIIDSDNNDDSNDLLEGERQFNLAIHSIQEKVTKQPSLLQGGELRSYQLEGLQWMVSLYNNDYNGILADEMGLGKTIQTIALIAYLLESKDLHGPHLILAPKAVLPNWENEFALWAPSISAFLYDGSKEKRTEIRARIAGGKFNVLITHYDLIMRDKAFLKKIDWNYMIVDEGHRLKNHECALAKTLGTGYRIKRRLLLTGTPIQNSLQELWSLLNFLLPHIFNSIHNFEEWFNTPFAECGSASLTDEEELLIINRLHHVIRPFLLRRKKSEVEKFLPGKTQVILKCDMSAWQKLYYKQVTDVGRVGLHSGNGKSKSLQNLTMQLRKCCNHPYLFVGADYNMCKKPEIVRASGKFELLDRLLPKLKKAGHRILLFSQMTRLIDLLEIYLSLNDYMYLRLDGSTKTDQRGILLKQFNEPDSPYFMFLLSTRAGGLGLNLQTADTIIIFDSDWNPQMDQQAEDRAHRIGQKKEVRVFVLVSIGSIEEVILERAKQKMGIDAKVIQAGLFNTTSTAQDRREMLEEIMSKGTSSLGEDVPSEREINRLAARTEEEFWMFEQMDEERRKKENYKTRLMEEKEVPEWAYTSETQEDKTNAKNHFGSLTGKRKRKEAVYSDSLSDLQWMKAMESEDEDASKVSQKRKRTDTKTRMSNGSKAEAVLSESDEEKEEEEEERKEESGKESEEENEKPLHSWKTNKKKRSRYPVMTSSPNSRGKGSSKGSKRN
B6: SWI3C (protein, UniProt Q9XI07 1-807)
chain: MPASEDRRGKWKRKKRGGLSAARKPKQEEEDMEEEDEENNNNNNEEMDDVENADELQQNGGATPDPGLGIGEVVEDSGSRISDFPAVVKRVVIRPHASVMAVVAAERAGLIGETRGQGSLPALENISFGQLQALSTVPADSLDLERSDGSSSAYVISPPPIMDGEGVVKRFGDLVHVLPMHSDWFAPNTVDRLERQVVPQFFSGKSPNHTPESYMEFRNAIVSKYVENPEKTLTISDCQGLVDGVDIEDFARVFRFLDHWGIINYCATAQSHPGPLRDVSDVREDTNGEVNVPSAALTSIDSLIKFDKPNCRHKGGEVYSSLPSLDGDSPDLDIRIREHLCDSHCNHCSRPLPTVYFQSQKKGDILLCCDCFHHGRFVVGHSCLDFVRVDPMKFYGDQDGDNWTDQETLLLLEAVELYNENWVQIADHVGSKSKAQCILHFLRLPVEDGLLDNVEVSGVTNTENPTNGYDHKGTDSNGDLPGYSEQGSDTEIKLPFVKSPNPVMALVAFLASAVGPRVAASCAHESLSVLSEDDRMKSEGMQGKEASLLDGENQQQDGAHKTSSQNGAEAQTPLPQDKVMAAFRAGLSAAATKAKLFADHEEREIQRLSANIVNHQLKRMELKLKQFAEIETLLMKECEQVEKTRQRFSAERARMLSARFGSPGGISPQTNNLQGMSLSTGGNNINSLMHQQHQQQQASATSQPSIIPGFSNNPQVQAQMHFMARQQQQQQQQQQQQQQAFSFGPRLPLNAIQTNAGSTASPNVMFGNNQLNNPAAAGAASINQPSFSHPMVRSSTGSGSGSGLGLN

The first test deals with T1, One-STrEP-tag:ATARP4 fusion protein (Arabidopsis thaliana) (UniProt Q84M92).
T1 sequence: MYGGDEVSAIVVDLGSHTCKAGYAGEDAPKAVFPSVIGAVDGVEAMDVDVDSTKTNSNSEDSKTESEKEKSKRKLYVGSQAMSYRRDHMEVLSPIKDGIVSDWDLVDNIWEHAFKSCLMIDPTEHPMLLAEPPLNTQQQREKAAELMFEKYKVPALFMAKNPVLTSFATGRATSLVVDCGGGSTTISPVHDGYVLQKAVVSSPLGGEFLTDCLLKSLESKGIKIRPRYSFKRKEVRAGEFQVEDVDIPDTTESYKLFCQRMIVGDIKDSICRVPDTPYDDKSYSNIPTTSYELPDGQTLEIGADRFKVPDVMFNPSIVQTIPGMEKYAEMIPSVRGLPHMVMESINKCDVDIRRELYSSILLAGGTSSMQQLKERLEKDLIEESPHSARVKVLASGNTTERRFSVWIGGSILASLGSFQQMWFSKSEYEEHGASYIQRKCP
Kind of test: affinity purification with mass spectrometry; One-STrEP-tagged bait stably expressed in Arabidopsis T87 suspension cells; extract in buffer H or L loaded on Strep-Tactin Superflow resin, seven washes (100 mM Tris-HCl pH 8.0, 150 mM NaCl), eluted with 2.5 mM desthiobiotin; MS/MS (Orbitrap Velos); hits of controls with no bait or Strep-GFP removed.
On to B1, for which the binding result is “binds”.
Still for that read-out and setting: the value for B2 was “binds”; that for B3 was “binds”; that for B4 was “binds”.
In the case of B5, the binding entry was “binds”.
Take B6: the binding result is recorded as “binds”.

The target of the next test is T2, One-STrEP-tag:ATSWC4 fusion protein (Arabidopsis thaliana) (UniProt Q8VZL6).
T2 sequence: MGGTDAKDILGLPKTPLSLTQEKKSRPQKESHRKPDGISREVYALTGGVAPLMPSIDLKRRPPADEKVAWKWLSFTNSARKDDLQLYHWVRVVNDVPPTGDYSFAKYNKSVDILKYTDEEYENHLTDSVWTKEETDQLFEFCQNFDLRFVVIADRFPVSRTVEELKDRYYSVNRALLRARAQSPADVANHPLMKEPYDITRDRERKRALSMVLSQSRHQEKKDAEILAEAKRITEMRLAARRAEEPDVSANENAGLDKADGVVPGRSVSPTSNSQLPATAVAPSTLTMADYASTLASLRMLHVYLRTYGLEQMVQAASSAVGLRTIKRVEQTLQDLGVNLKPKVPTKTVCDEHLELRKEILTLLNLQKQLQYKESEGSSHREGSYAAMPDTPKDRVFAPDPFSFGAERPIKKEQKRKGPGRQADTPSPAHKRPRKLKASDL
Described as above.
As to B1, the binding result was “no binding”.
Consider B2, for which the binding result is “binds”.
With B3, the binding result is “binds”.
For the molecule B4, the binding entry is given as “no binding”.
On to B5, for which the binding result is “no binding”.
Same read-out and setting: to B6 belongs “no binding”.
